Reference: US20230372361A1, “USE OF OXYGENATED CHOLESTEROL SULFATES FOR TREATING INFLAMMATORY CONDITIONS” (Durect Corporation, priority 2020, published 2023)

Test system: Huh-7 cells
Experiment: Whole genome bisulfite sequencing (WGBS), promoter 5mCpG demethylation
Type: cell-based, human
Procedure: Huh-7 and HepG-2 cells were cultured in DMEM media supplemented with 10% heat-inactivated fetal bovine serum (FBS), high glucose (HG, 4.5 g/L) at 37° C. in a humidified atmosphere of 5% CO2.
Each sample, 2 was sent to EpigenDx, Inc. (Hopkinton, MA) for analysis of global methylation bisulfite sequencing. The same samples, 6 μg, were sent to Novogene Co., Ltd (Tianjin, China) for analysis of whole genome bisulfite sequencing (WGBS). Total RNA was isolated using the Promega SV total RNA isolation system (Madison, WI) with DNase treatment. Each sample, 2 was used for the first-strand cDNA synthesis as recommended by the manufacturer (Invitrogen, Carlsbad, CA). Real-time RT-PCR was performed using SYBR Green as the indicator on ABI 7500 Fast Real-Time PCR System (Applied Biosystems, Foster City, CA). Amplifications of β-actin or GAPDH were used as internal controls. Relative messenger RNA (mRNA) expression was quantified with the comparative cycle threshold (Ct) method using the primer set shown in Table 1.1 and was expressed as 2^−ΔΔct.
Analysis of Whole Human Genome Bisulfite Sequencing (WGBS) Each sample, 5.2 μg of genomic DNA spiked with 26 ng lambda DNA, was fragmented by sonication to 200-300 bp with Covaris S220, followed by end repair and adenylation. Cytosine-methylated barcodes were ligated to sonicated DNA per the manufacturer's instructions. These DNA fragments were treated twice with bisulfite using EZ DNA Methylation-Gold™ Kit (Zymo Research) before the resulting single-strand DNA fragments were PCR amplified using KAPA HiFi Hot Start Uracil and Ready Mix (2×). Library concentration was quantified by Qubit® 2.0 Flurometer (Life Technologies, CA, USA) and quantitative PCR, and the insert size was assayed on an Agilent Bioanalyzer 2100 system.
The library preparations were sequenced on an Illumina Hiseq 2500/4000 or Novaseq platform and 125 bp/150 bp paired-end reads were generated. Image analysis and base calling were performed with Illumina CASAVA pipeline. Trimmomatic (Trimmomatic-0.36) software was used for quality control. Bismark software (version 0.16.3; Krueger F, 2011) was used to perform alignments of bisulfite-treated reads to a reference genome (-X 700--dovetail). DSS software (23) was used to identify differentially methylated regions (DMRs). KOBAS software was used to test the statistical enrichment of DMR related genes in the Kyoto Encyclopedia of Genes and Genomes (KEGG) pathways.
Each sample (6 μg) was used for analysis of the whole genome bisulfite sequencing (WGBS).

SMILES: C[C@H](CCCC(C)(C)O)[C@H]1CC[C@H]2[C@@H]3CC=C4C[C@@H](OS(=O)(=O)O)CC[C@]4(C)[C@H]3CC[C@]12C [25HC3S, 25-hydroxycholesterol-3-sulfate]
- number of genes in Calcium pathway with 5mCpG demethylated in promoter regions (25 μM, 4 hours, of 180 total genes): 19 genes
- number of genes in cAMP pathway with 5mCpG demethylated in promoter regions (25 μM, 4 hours, of 200 total genes): 28 genes
- number of genes in MAPK signaling pathway with 5mCpG demethylated in promoter regions (25 μM, 4 hours, of 257 total genes): 23 genes
- number of KEGG pathways the demethylated genes are involved in (high glucose model): 79 KEGG pathways
- number of genes with 5mCpG converted to CpG in promoter regions (high glucose model): 1074 genes
